# These are yes or no findings as the source states them, for the method shown. In cells and extracts the contact can be indirect. A yes stands for co-enrichment or nearness to the bait. Other partners may have been found. Where a sequence is shown, tags or fusion partners need not be part of it.
# T1: GFP-tagged GINS subunit Psf2 (S. cerevisiae) (UniProt P40359)
# T1 sequence: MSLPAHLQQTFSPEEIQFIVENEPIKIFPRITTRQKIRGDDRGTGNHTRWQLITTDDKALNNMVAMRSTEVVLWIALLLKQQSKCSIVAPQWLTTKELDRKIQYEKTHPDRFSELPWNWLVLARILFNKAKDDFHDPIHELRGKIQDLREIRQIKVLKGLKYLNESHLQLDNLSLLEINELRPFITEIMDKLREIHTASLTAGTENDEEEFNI
# Molecular target: T1, GFP-tagged GINS subunit Psf2 (S. cerevisiae)
# Experiment: affinity purification with mass spectrometry; GFP-Trap agarose beads on DNase-treated yeast extracts (100 mM potassium acetate, 0.1% NP-40, 10% glycerol, 2 h at 4 °C); bait GFP-tagged Psf2 against untagged control; cells in S-phase, HU-arrested in S-phase, or after 3 h of G1 replication (CDK/DDK bypass); label-free quantitative MS
row,binding,Binder
1,binds,"DNA repair protein Rad5 (protein, UniProt P32849 1-1169) MSHIEQEERKRFFNDDLDTSETSLNFKSENKESFLFANSHNDDDDDVVVSVSDTTEGEGDRSIVPVRREIEEEGQNQFITELLRIIPEMPKDLVMELNEKFGSQEEGLSLALSHYFDHNSGTSISKIPSSPNQLNTLSDTSNSTLSPSSFHPKRRRIYGFRNQTRLEDKVTWKRFIGALQVTGMATRPTVRPLKYGSQMKLKRSSEEISATKVYDSRGRKKASMASLVRIFDIQYDREIGRVSEDIAQILYPLLSSHEISFEVTLIFCDNKRLSIGDSFILQLDCFLTSLIFEERNDGESLMKRRRTEGGNKREKDNGNFGRTLTETDEELESRSKRLALLKLFDKLRLKPILDEQKALEKHKIELNSDPEIIDLDNDEICSNQVTEVHNNLRDTQHEEETMNLNQLKTFYKAAQSSESLKSLPETEPSRDVFKLELRNYQKQGLTWMLRREQEFAKAASDGEASETGANMINPLWKQFKWPNDMSWAAQNLQQDHVNVEDGIFFYANLHSGEFSLAKPILKTMIKGGILSDEMGLGKTVAAYSLVLSCPHDSDVVDKKLFDIENTAVSDNLPSTWQDNKKPYASKTTLIVVPMSLLTQWSNEFTKANNSPDMYHEVYYGGNVSSLKTLLTKTKTPPTVVLTTYGIVQNEWTKHSKGRMTDEDVNISSGLFSVNFYRIIIDEGHNIRNRTTVTSKAVMALQGKCKWVLTGTPIINRLDDLYSLVKFLELDPWRQINYWKTFVSTPFESKNYKQAFDVVNAILEPVLLRRTKQMKDKDGKPLVELPPKEVVIKRLPFSKSQDLLYKFLLDKAEVSVKSGIARGDLLKKYSTILVHILRLRQVCCHPGLIGSQDENDEDLSKNNKLVTEQTVELDSLMRVVSERFDNSFSKEELDAMIQRLKVKYPDNKSFQSLECSICTTEPMDLDKALFTECGHSFCEKCLFEYIEFQNSKNLGLKCPNCRNQIDACRLLALVQTNSNSKNLEFKPYSPASKSSKITALLKELQLLQDSSAGEQVVIFSQFSTYLDILEKELTHTFSKDVAKIYKFDGRLSLKERTSVLADFAVKDYSRQKILLLSLKAGGVGLNLTCASHAYMMDPWWSPSMEDQAIDRLHRIGQTNSVKVMRFIIQDSIEEKMLRIQEKKRTIGEAMDTDEDERRKRRIEEIQMLFE"
2,binds,"helicase Rrm3 (protein, UniProt P38766 1-723) MFRSHASGNKKQWSKRSSNGSTPAASASGSHAYRQQTLSSFFMGCGKKSAAASKNSTTIIDLESGDEGNRNITAPPRPRLIRNNSSSLFSQSQGSFGDDDPDAEFKKLVDVPRLNSYKKSSRSLSMTSSLHKTASASTTQKTYHFDEDETLREVTSVKSNSRQLSFTSTINIEDSSMKLSTDSERPAKRSKPSMEFQGLKLTVPKKIKPLLRKTVSNMDSMNHRSASSPVVLTMEQERVVNLIVKKRTNVFYTGSAGTGKSVILQTIIRQLSSLYGKESIAITASTGLAAVTIGGSTLHKWSGIGIGNKTIDQLVKKIQSQKDLLAAWRYTKVLIIDEISMVDGNLLDKLEQIARRIRKNDDPFGGIQLVLTGDFFQLPPVAKKDEHNVVKFCFESEMWKRCIQKTILLTKVFRQQDNKLIDILNAIRYGELTVDIAKTIRNLNRDIDYADGIAPTELYATRREVELSNVKKLQSLPGDLYEFKAVDNAPERYQAILDSSLMVEKVVALKEDAQVMMLKNKPDVELVNGSLGKVLFFVTESLVVKMKEIYKIVDDEVVMDMRLVSRVIGNPLLKESKEFRQDLNARPLARLERLKILINYAVKISPHKEKFPYVRWTVGKNKYIHELMVPERFPIDIPRENVGLERTQIPLMLCWALSIHKAQGQTIQRLKVDLRRIFEAGQVYVALSRAVTMDTLQVLNFDPGKIRTNERVKDFYKRLETLK"
3,binds,"topoisomerase Top1 (protein, UniProt P04786 1-769) MTIADASKVNHELSSDDDDDVPLSQTLKKRKVASMNSASLQDEAEPYDSDEAISKISKKKTKKIKTEPVQSSSLPSPPAKKSATSKPKKIKKEDGDVKVKTTKKEEQENEKKKREEEEEEDKKAKEEEEEYKWWEKENEDDTIKWVTLKHNGVIFPPPYQPLPSHIKLYYDGKPVDLPPQAEEVAGFFAALLESDHAKNPVFQKNFFNDFLQVLKESGGPLNGIEIKEFSRCDFTKMFDYFQLQKEQKKQLTSQEKKQIRLEREKFEEDYKFCELDGRREQVGNFKVEPPDLFRGRGAHPKTGKLKRRVNPEDIVLNLSKDAPVPPAPEGHKWGEIRHDNTVQWLAMWRENIFNSFKYVRLAANSSLKGQSDYKKFEKARQLKSYIDAIRRDYTRNLKSKVMLERQKAVAIYLIDVFALRAGGEKSEDEADTVGCCSLRYEHVTLKPPNTVIFDFLGKDSIRFYQEVEVDKQVFKNLTIFKRPPKQPGHQLFDRLDPSILNKYLQNYMPGLTAKVFRTYNASKTMQDQLDLIPNKGSVAEKILKYNAANRTVAILCNHQRTVTKGHAQTVEKANNRIQELEWQKIRCKRAILQLDKDLLKKEPKYFEEIDDLTKEDEATIHKRIIDREIEKYQRKFVRENDKRKFEKEELLPESQLKEWLEKVDEKKQEFEKELKTGEVELKSSWNSVEKIKAQVEKLEQRIQTSSIQLKDKEENSQVSLGTSKINYIDPRLSVVFCKKYDVPIEKIFTKTLREKFKWAIESVDENWRF"

# Source: paper PMC9674678
